Results deposited as PubChem BioAssay AID1259405 (NCATS, 2018).

Screen: 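Mouse-designed siRNAs used to find CHO productivity engineering targets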 (primary screen)
System: Chinese hamster CHO-K1 ovary cells with stable secreted eGFP expression
Reagent: single siRNA against mouse genes, 0.8 pmol siRNA per well (2 µl of 400 nM stock)
Time to read-out: 3 days
Measured: 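Percent of the per-plate non-targeting control median for intracellular GFP per well by laser scanning cytometry and for cell viability by ATP luminescence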
Scale: GFP, % of control: higher = more GFP per well, higher productivity; viability (ATP), % of control: higher = more viable cells (more ATP)
Call rule: 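Called active when intracellular GFP, relative to negative control, is at or above 120%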
Shown is one part, drawn at random, of about 50,000 deposited reagents. In the full data, about 4,000 (8%) were called active. 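Mouse siRNA library applied to hamster cells; one well for each siRNA.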 Unmarked entries are inactive. The numbers tell different reagents against one gene apart. Reagent sequences are not shown.

| gene symbol | reagent no. | GFP, % of control | viability (ATP), % of control |
| --- | --- | --- | --- |
| Ccdc28a | 1 | 86.2 | 78 |
| Ccdc28a | 2 | 97.9 | 79.6 |
| Ccdc28a | 3 | 131 (active) | 146 |
| Gna12 | 1 | 43.1 | 72.3 |
| Gna12 | 2 | 127 (active) | 91 |
| Gna12 | 3 | 50.3 | 67 |
| Mprip | 1 | 119 | 104 |
| Mprip | 2 | 66.9 | 90.9 |
| S1pr5 | 1 | 70.1 | 75.2 |
| S1pr5 | 2 | 94 | 66.9 |
| S1pr5 | 3 | 90.7 | 92.7 |
| Best2 | 1 | 44.5 | 59.9 |
| Best2 | 2 | 135 (active) | 125 |
| Best2 | 3 | 148 (active) | 74.5 |
| H2-Q8 | 1 | 158 (active) | 98.8 |
| H2-Q8 | 2 | 42.2 | 50.6 |
| H2-Q8 | 3 | 43.5 | 80.5 |
| Or12e8 | 1 | 97.2 | 53.7 |
| Or12e8 | 2 | 82.9 | 57.5 |
| Or12e8 | 3 | 86 | 80.5 |
| Shc3 | 1 | 109 | 68.9 |
| Shc3 | 2 | 63.3 | 74.5 |
| Shc3 | 3 | 117 | 78.4 |
| Usp46 | 1 | 75.5 | 91.6 |
| Usp46 | 2 | 79.6 | 70.5 |
| Usp46 | 3 | 101 | 67.4 |
| Ceacam9 | 1 | 57.2 | 58.8 |
| Ceacam9 | 2 | 54.5 | 77.2 |
| Ceacam9 | 3 | 81.1 | 74.4 |
| Yif1b | 1 | 102 | 98.9 |
| Yif1b | 2 | 46 | 49.3 |
| Yif1b | 3 | 104 | 89.7 |
| Ncf4 | 1 | 101 | 72.2 |
| Ncf4 | 2 | 80.4 | 84.4 |
| Ncf4 | 3 | 37 | 45.8 |
| Peg3 | 1 | 31.4 | 52.4 |
| Peg3 | 2 | 79.4 | 85.3 |
| Peg3 | 3 | 59.9 | 75.8 |
| Atp2b1 | 1 | 79.9 | 77.4 |
| Atp2b1 | 2 | 110 | 99.8 |
| Atp2b1 | 3 | 98.7 | 99.1 |
| Mtif3 | 1 | 80 | 57.6 |
| Mtif3 | 2 | 80.8 | 27.3 |
| Mtif3 | 3 | 93.5 | 49.4 |
| Pithd1 | 1 | 58.2 | 60.1 |
| Pithd1 | 2 | 56.2 | 56.7 |
| Pithd1 | 3 | 86.7 | 111 |
| Gykl1 | 1 | 88.1 | 93.1 |
| Gykl1 | 2 | 47.2 | 53.8 |
| Gykl1 | 3 | 90.7 | 75.4 |
| Rapsn | 1 | 160 (active) | 117 |
| Rapsn | 2 | 111 | 79 |
| Ubxn10 | 1 | 76.4 | 78.3 |
| Ubxn10 | 2 | 68.6 | 107 |
| Ubxn10 | 3 | 75.5 | 82.5 |
| Cpox | 1 | 114 | 126 |
| Cpox | 2 | 65.5 | 68.8 |
| Cpox | 3 | 66.3 | 69.1 |

3 of these entries, set out differently:
gene symbol,reagent no.,"GFP, % of control","viability (ATP), % of control"
Mtif3,1,80,57.6
Mtif3,2,80.8,27.3
Mtif3,3,93.5,49.4
